From patent US6822074 (dated 2004)
Square brackets hold non-standard residues; d marks the D form. * marks the point of attachment. Pbf = Cc1c(C)c(S(=O)(=O)*)c(C)c2c1OC(C)(C)C2; NMeV = CN[C@H](C(=O)O)C(C)C; Boc = CC(C)(C)OC(=O)*; OBn = c1ccc(CO*)cc1; OtBu = CC(C)(C)O*

Experiment: general procedure: solution-phase peptide synthesis; EDCI/DMAP (fragment coupling); TBTU/N-methylmorpholine (cyclisation)
[1] = late stage modification step, internal salt

Boc-D(OBn)[dF][NMeV]R(Pbf)G-OtBu
step yield (coupling step, internal salt): 82%

Cyclo(Arg(Pbf)-Gly-Asp(OBzl)-DPhe-NMeVal)
cyclisation yield (cyclisation step, internal salt): 73.4%

Cyclo(Arg-Gly-Asp-DPhe-NMeVal)
step yield [1]: 96%

H-Asp(OBzl)-DPhe-NMeVal-Arg(Pbf)-Gay-OHxHCOOH
step yield (late stage modification step, HCOOH salt): 95%

Cyclo(Arg(Pbf)-Gly-Asp-DPhe-NMeVal)
step yield [1]: 83%
